Some entries share one result that the patent states for a list of compounds.
These compounds were tested on rat spinal dorsal root ganglion (DRG) neurons (assay: High potassium-induced rise in intracellular calcium concentration of rat DRG neurons (Cal-520 AM fluorescence imaging)). Conditions: compound 30 μmol/L; compared to vehicle treatment group; Table 4 experiment.
Format: cell-based
From the text: Example 4 Effect of the cyclic amine derivative (I) or a pharmacologically acceptable salt thereof on high potassium-induced rise in intracellular calcium concentration of rat spinal dorsal root ganglion (DRG) neurons:
The cyclic amine derivative (I) or a pharmacologically acceptable salt thereof was examined for its inhibitory effect on high potassium-induced rise in intracellular calcium concentration of DRG neurons.
The SD rats (4 to 6 weeks old, male; Charles River Laboratories Japan, Inc.) were anesthetized and euthanized by bloodletting from abdominal aorta. After incision of the dorsal part, the spinal column was excised and cooled in ice. The dorsal column was cut off, and the spinal cord was removed from the ventral side of the spinal column. Then, DRGs (L4 to L6) with nerve fibers were excised with tweezers. The excised DRGs were dipped in ice-cold Leibovitz's L-15 medium (Thermo Fisher Scientific), and the nerve fibers were removed under a stereoscopic microscope to separate DRG.
The separated DRGs were made fine slits with ophthalmic scissors, followed by incubation at 37° C. for 20 minutes with Collagenase A (Roche Molecular Systems). After centrifugation at 200×g for 5 minutes, the supernatant was removed, and 0.05% Trypsin-EDTA (Thermo Fisher Scientific) was added, followed by incubation at 37° C. for 5 minutes. DMEM (Thermo Fisher Scientific) containing 1% penicillin-streptomycin (Thermo Fisher Scientific) and 10% fetal bovine serum (Thermo Fisher Scientific) was added thereto. After centrifugation at 200×g for 5 minutes, the supernatant was removed. After the removal of the supernatant, Neurobasal-A Medium (Thermo Fisher Scientific) containing 1% penicillin-streptomycin and 2% B-27 (Thermo Fisher Scientific), which was prepared as a DRG nerve culture medium, was added. […]
Change in intracellular calcium concentration was measured by analyzing with analytical software, change in fluorescence intensity of the cells loaded with the calcium fluorescent dye in images taken under a confocal laser microscope system (Nikon Instech Co., Ltd.). […]

| SMILES | Inhibition of high potassium-induced rise in intracellular calcium concentration, in words |
| --- | --- |
| CCn1ccnc1C(O)CC(=O)N1CCC(N(C)C)CC1 (stereo not drawn) [Compound 1, 1-(4-(dimethylamino)piperidin-1-yl)-3-(1-ethyl-1H-imidazol-2-yl)-3-hydroxypropan-1-one] | significantly inhibited |
| CN(C)C1CCN(C(=O)CC(O)c2nccn2CC(F)(F)F)CC1 (stereo not drawn) [Compound 3, 1-(4-(dimethylamino)piperidin-1-yl)-3-hydroxy-3-(1-(2,2,2-trifluoroethyl)-1H-imidazol-2-yl)propan-1-one] | significantly inhibited |
| CN(C)C1CCN(C(=O)CCc2nccn2C)CC1 [Compound 4, 1-(4-(dimethylamino)piperidin-1-yl)-3-(1-methyl-1H-imidazol-2-yl)propan-1-onesulfatemonohydrate] | significantly inhibited |
